PubChem BioAssay AID686938 – Drosophila RNAi Screening Center – 2013
In all, the deposit lists about 23,000 reagents; below is an unselected part of those that have a named target and a result. Of all reagents, 75 (0.33%) were called active. 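Raw plate signals without normalisation; calls rest on plate z-scores that were not deposited; ratio present for only 364 wells.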 A plus sign joins genes that one reagent is predicted to hit. Reagent sequences are not shown. Not given: the dose of the treatment.

Screen: 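Fly genes required for calcium entry once internal stores are emptied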 (primary screen)
Cells: Drosophila S2R+ cells
Reagents: long dsRNA against Drosophila genes, about 0.25 µg dsRNA per well, roughly 10,000 cells
Time to read-out: 5 days of knock-down before the calcium assay
Challenge: thapsigargin (SERCA pump blocker) to empty calcium stores; entry signal taken 4 min after adding it
Detection: 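Per-well fluo-4 fluorescence in two replicates, unnormalised, measured in resting cells and 4 min after store depletion by the SERCA blocker thapsigargin; ratio of the two present in few wells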
Reading the numbers: calcium entry signal: higher = stronger calcium signal after store depletion; resting calcium signal: higher = higher resting calcium signal
Units: calcium entry signal in fluorescence units; resting calcium signal in fluorescence units
Active means: 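Hit if the duplicate-averaged plate z-score for entry over resting signal is under −3; wells with weak total dye signal (Fmax z < −2) or more than 5 off-targets removed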
Meaning of the calls: active = strongly reduced calcium entry; inactive = no strong reduction

CG5762 [DRSC15869] → calcium entry signal, replicate 1: 4.13e7; calcium entry signal, replicate 2: 2.91e7; resting calcium signal, replicate 1: 1.95e7; resting calcium signal, replicate 2: 1.44e7; Outcome: inactive
scaf (scarface) [DRSC04849] → calcium entry signal, replicate 1: 3.25e7; resting calcium signal, replicate 1: 1.65e7; Outcome: inactive
CG42455 + vnc [DRSC09867] → calcium entry signal, replicate 1: 3.83e7; calcium entry signal, replicate 2: 2.76e7; resting calcium signal, replicate 1: 2.65e7; resting calcium signal, replicate 2: 1.46e7; Outcome: inactive
Takl1 (Tak1-like 1) [DRSC13443] → calcium entry signal, replicate 1: 3.64e7; calcium entry signal, replicate 2: 2.80e7; resting calcium signal, replicate 1: 1.84e7; resting calcium signal, replicate 2: 1.39e7; Outcome: inactive
CG4882 [DRSC04495] → calcium entry signal, replicate 1: 4.97e7; calcium entry signal, replicate 2: 6.19e7; resting calcium signal, replicate 1: 2.21e7; resting calcium signal, replicate 2: 2.54e7; Outcome: inactive
Usp1 (Ubiquitin specific protease 1) [DRSC14155] → calcium entry signal, replicate 1: 2.47e7; calcium entry signal, replicate 2: 3.00e7; resting calcium signal, replicate 1: 1.10e7; resting calcium signal, replicate 2: 1.38e7; Outcome: inactive
CG30259 [DRSC04164] → calcium entry signal, replicate 1: 3.56e7; calcium entry signal, replicate 2: 4.39e7; resting calcium signal, replicate 1: 1.90e7; resting calcium signal, replicate 2: 1.98e7; Outcome: inactive
CG30259 [DRSC04165] → calcium entry signal, replicate 1: 3.47e7; calcium entry signal, replicate 2: 4.40e7; resting calcium signal, replicate 1: 1.80e7; resting calcium signal, replicate 2: 2.12e7; Outcome: inactive
CG13102 + Rcd-1r [DRSC03266] → calcium entry signal, replicate 1: 3.44e7; calcium entry signal, replicate 2: 5.14e7; resting calcium signal, replicate 1: 1.71e7; resting calcium signal, replicate 2: 2.04e7; Outcome: inactive
CG15498 [DRSC15040] → calcium entry signal, replicate 1: 3.30e7; calcium entry signal, replicate 2: 3.75e7; resting calcium signal, replicate 1: 4.42e7; resting calcium signal, replicate 2: 1.63e7; Outcome: inactive
hll (heimdall) [DRSC01944] → calcium entry signal, replicate 1: 4.95e7; resting calcium signal, replicate 1: 2.39e7; Outcome: inactive
Lrr47 (Leucine-rich repeat 47) [DRSC03365] → calcium entry signal, replicate 1: 4.62e7; resting calcium signal, replicate 1: 2.18e7; Outcome: inactive
Nab2 (Nuclear polyadenosine RNA-binding 2) [DRSC14158] → calcium entry signal, replicate 1: 3.06e7; calcium entry signal, replicate 2: 3.04e7; resting calcium signal, replicate 1: 1.45e7; resting calcium signal, replicate 2: 1.22e7; Outcome: inactive
dlt (discs lost) [DRSC08705] → calcium entry signal, replicate 1: 3.95e7; calcium entry signal, replicate 2: 4.12e7; resting calcium signal, replicate 1: 1.87e7; resting calcium signal, replicate 2: 1.67e7; Outcome: inactive

2 entries from above in another layout.
target | DRSC id | calcium entry signal, replicate 1 | calcium entry signal, replicate 2 | resting calcium signal, replicate 1 | resting calcium signal, replicate 2 | Outcome
CG15498 | DRSC15040 | 3.30e7 | 3.75e7 | 4.42e7 | 1.63e7 | inactive
hll (heimdall) | DRSC01944 | 4.95e7 | – | 2.39e7 | – | inactive
